Assay results reported in publication PMC6177440.
No constants are given. Whether binding was seen depends on the method and setting. In cells and extracts the contact can be indirect.

Amino acid sequences for entries named in this document (tags omitted). Residues count along the entry.
UniProt P10238: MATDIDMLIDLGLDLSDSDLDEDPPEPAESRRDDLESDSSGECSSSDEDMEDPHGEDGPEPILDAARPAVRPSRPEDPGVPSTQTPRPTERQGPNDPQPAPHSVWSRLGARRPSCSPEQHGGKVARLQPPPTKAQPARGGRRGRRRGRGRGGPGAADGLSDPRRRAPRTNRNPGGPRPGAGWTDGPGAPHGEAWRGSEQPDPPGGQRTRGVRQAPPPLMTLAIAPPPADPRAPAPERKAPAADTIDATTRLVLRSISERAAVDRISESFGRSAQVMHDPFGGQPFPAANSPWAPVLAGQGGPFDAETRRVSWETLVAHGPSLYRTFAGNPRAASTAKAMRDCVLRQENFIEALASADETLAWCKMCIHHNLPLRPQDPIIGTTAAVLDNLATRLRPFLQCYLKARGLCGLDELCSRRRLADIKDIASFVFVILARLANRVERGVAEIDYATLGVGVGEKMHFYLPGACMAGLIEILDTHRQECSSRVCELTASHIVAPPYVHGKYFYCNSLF
UniProt Q96QD9, residues 177-318: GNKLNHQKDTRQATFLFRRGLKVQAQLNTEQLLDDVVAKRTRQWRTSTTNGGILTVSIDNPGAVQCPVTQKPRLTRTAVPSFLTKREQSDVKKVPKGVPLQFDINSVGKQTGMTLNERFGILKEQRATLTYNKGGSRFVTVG

Target: HSV-1 ICP27 (wild type, from HSV-1 KOS infection) (HSV-1 (strain KOS)) (UniProt P10238)
Test: co-IP; HeLa cells transfected with Flag-tagged UIF constructs, infected 24 h later with HSV-1 KOS, WRL or ΔRGG (MOI 10) for 8 h; lysates (treated or not treated with RNase) immunoprecipitated with anti-ICP27 antibody P1119 on protein-G Dynabeads; blots probed with anti-Flag

With “Flag-epitope tagged UIF C-terminal region (residues 177-318) (from UniProt Q96QD9 177-318) (domain or fragment)” the binding was “no binding”.
